Measurements from patent publication US11884649B2, “IRE1α inhibitors and uses thereof” (The Regents of the University of California, priority 2020, dated 2024).
Some of these results come from one statement about several compounds together. For at least one compound, name, drawing or mass did not settle the structure.

Sequences of proteins named here, by UniProt entry; tags and fusion partners are left off. Residues count along the entry.
UniProt O75460, 547-977: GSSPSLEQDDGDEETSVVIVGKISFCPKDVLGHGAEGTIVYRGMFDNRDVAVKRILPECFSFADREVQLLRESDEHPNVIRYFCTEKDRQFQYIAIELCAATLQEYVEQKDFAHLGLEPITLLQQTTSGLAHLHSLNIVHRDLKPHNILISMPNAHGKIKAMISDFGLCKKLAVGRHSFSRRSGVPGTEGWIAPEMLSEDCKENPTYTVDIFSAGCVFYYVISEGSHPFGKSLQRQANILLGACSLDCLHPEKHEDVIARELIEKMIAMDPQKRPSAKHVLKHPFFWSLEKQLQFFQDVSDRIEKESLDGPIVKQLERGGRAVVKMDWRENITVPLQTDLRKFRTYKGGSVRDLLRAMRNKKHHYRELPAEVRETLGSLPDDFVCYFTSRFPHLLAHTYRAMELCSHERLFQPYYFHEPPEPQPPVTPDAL

Biological target: T1, dpIRE1α* (Homo sapiens, UniProt O75460)
T1 construct: human IRE1α (residues 547-977, IRE1α*) was expressed in SF9 insect cells; His6 (N); made in house; host or cells: Sf9 insect cells, then λ-PPase treatment
Assay: In vitro Kdimer assay with dephosphorylated construct
Format: biochemical
Conditions: complex versus apo dpIRE1α*
Text: In order to better understand how to achieve an optimal intermediate RNase activation state through engagement of IRE1α's kinase domain, we first established a quantitative in vitro framework for characterizing how ATP-binding site occupancy influences RNase activity. […] This dimeric state-commonly referred to as the “back-to-back” dimer—is characterized by an extensive interface between the kinase and RNase domains of each IRE1α protomer; this dimeric state can be promoted through mass action as IRE1α concentration is raised. […] Furthermore, ligands that occupy the ATP-binding site of the kinase domain can also stimulate IRE1α's RNase activity by promoting dimer formation. We measured the ability of a purified, recombinant kinase/RNase domain construct of IRE1α—called IRE1α*—to cleave a FRET-quenched XBP1 RNA mini-substrate as a function of IRE1α* concentration, in order to provide a quantitative metric of IRE1α's dimer affinity (Kdimer) (FIG. 1B). […]
IRE1α* or dPIRE1α* was titrated from either 2 μM or 4 μM in two-fold serial dilutions in assay buffer (20 mM Tris, 50 mM sodium chloride, 1 mM MgCl2, 2 mM DTT, 0.05% Triton X-100 (v/v), pH 7.5) and incubated with 50 μM inhibitor for 30 minutes at room temperature. […] Fluorescence was detected on a Perkin Elmer Envision Microplate Reader at excitation and emission wavelengths of 650 nm and 665 nm. […]

fold lowering of Kdimer of dpIRE1α*	SMILES
over 80 fold	O=C(Nc1c[nH]nc1-c1nc2ccc(CN3CCOCC3)cc2[nH]1)NC1CC1 [AT9283]
over 80 fold	NC(=O)Nc1cc(-c2cccc(F)c2)sc1C(=O)N[C@H]1CCCNC1 [AZD7762]
